# Library screening results

Amino acid sequences for entries named in this document (tags omitted).
UniProt E9BF75, entry or part of it: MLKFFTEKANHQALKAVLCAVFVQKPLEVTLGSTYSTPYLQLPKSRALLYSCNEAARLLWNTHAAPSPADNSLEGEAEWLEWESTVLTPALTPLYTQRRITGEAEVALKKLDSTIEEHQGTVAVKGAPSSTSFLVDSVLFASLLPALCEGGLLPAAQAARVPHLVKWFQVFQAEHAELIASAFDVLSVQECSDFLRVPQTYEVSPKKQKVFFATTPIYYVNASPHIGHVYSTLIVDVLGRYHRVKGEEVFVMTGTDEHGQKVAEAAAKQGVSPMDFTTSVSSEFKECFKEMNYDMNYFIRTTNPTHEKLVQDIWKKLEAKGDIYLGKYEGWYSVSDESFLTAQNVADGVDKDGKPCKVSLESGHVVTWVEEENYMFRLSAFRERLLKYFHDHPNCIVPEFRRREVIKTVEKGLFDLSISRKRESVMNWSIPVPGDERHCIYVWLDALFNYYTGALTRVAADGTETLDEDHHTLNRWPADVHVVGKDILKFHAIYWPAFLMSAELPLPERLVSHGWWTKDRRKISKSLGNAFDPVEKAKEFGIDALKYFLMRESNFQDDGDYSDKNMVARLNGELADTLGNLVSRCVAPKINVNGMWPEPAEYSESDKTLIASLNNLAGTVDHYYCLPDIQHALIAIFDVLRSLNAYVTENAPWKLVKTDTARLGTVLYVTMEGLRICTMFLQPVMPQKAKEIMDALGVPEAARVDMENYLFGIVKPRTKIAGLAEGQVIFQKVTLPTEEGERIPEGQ

From ChEMBL document CHEMBL3988442, “University of Dundee, Small-Polar-MMV Screening Library” (2021).

Results are percentages, as filed.
How 0% and 100% were set is not recorded. Most values in the screen are low, and negative values occur.
Compounds were drawn at random from those tested, without regard to their results.
A dash means the value is not listed here; it may have been measured.

LdMetRS: 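Primary screen of methionyl-tRNA synthetase; the read-out is not stated. Target: Methionyl-tRNA synthetase (putative), Leishmania donovani (UniProt E9BF75). The test concentration is not given. The values are filed as inhibition. Of about 68,000 compounds tested this way, about 24 (0.035%) reached 50% or more in at least one test.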
Mtb heat-shock: 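Assay on Mycobacterium tuberculosis, filed only as a heat shock assay from Cornell; the read-out is not stated. The concentration is filed as 10 mM, unlikely as a test dose, so the dose is not known. The record gives no direction; compounds that gave an IC50 in retests scored well above the rest, so higher reads as stronger inhibition. About 69,000 compounds were tested under these conditions; 1.4% (about 930) showed 50% or more at least once.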

structure,LdMetRS,Mtb heat-shock
CC1CCN(c2cc(NC(=O)C3CC3)ncn2)CC1,9.317,24.76
CC(C)c1ccc(/C=C/CC(=O)NC2CCS(=O)(=O)CC2)cc1,17.22,-73.73
Cc1cc(CNC(=O)N(Cc2ccc(F)cc2F)C2CC2)no1,2.235,-7.625
CN(Cc1ccc(Br)s1)Cn1nc(-c2ccc(F)cc2)oc1=O,6.354,6.507
Cc1cnn(C2CN(CC(=O)NCCc3ccsc3)C2)c1,20.57,16.36
Cc1ccc(NC2COC3(CCN(Cc4ccn(C)n4)CC3)C2)nn1 (stereo not shown),15.94,-
CCN(CC)c1ccc(C(=O)N2CCC(c3nc(C)no3)CC2)cn1,16.32,29.46
CCN(CC)S(=O)(=O)N1CCCC1CC(=O)c1cccs1 (stereo not shown),5.686,-24.34
O=C(O)C(F)(F)F.[H][C@]12CCCC(OCc3cccnc3)[C@@]1([H])CN(C(=O)COC)C2 (stereo partly shown),-,-13.19
Cc1cccc2c1nc1n2[C@@H](CNC(=O)Cc2ccccc2)COC1,11.19,-13.68
COC(=O)NCC(=O)N1CCc2cc(Cl)cc(Cl)c2C1,9.537,-2.958
COCC(=O)NCc1cc(=O)n2c(n1)CN(CC1CCOC1)CCC2.O=C(O)C(F)(F)F (stereo not shown),-,-14.54
O=C(NC[C@H]1OC[C@@H](NC2CCC(F)(F)CC2)[C@@H]1O)c1cccs1,7.797,-29.75
CCn1c(C2CCCNC2)nn(Cc2ccc(C(=O)NC)o2)c1=O (stereo not shown),11.17,-20.07
Cc1cc(C(=O)Nc2ccc(OCC3CCOCC3)cc2)[nH]n1,-7.317,-10.33
Cc1nn(C)c2cnn(CC(=O)NCc3cccs3)c12,6.281,-5.187
CN(C(=O)CN1CCC(NC(=O)c2cccs2)CC1)c1ccccc1,17.71,-17.87
NC(=O)NCC(=O)N1C[C@H]2CC[C@@H]1CN(Cc1ccccc1)C2,16.26,-
Cc1ccc(C)c(CS(=O)(=O)CC(=O)NC(C)c2ccc(F)cc2F)c1 (stereo not shown),-9.375,5.709
c1cc(-c2ccc3c(c2)C2(CCNCC2)CC3)ccn1,-1.812,15.42
CN(C)CC1(O)CCN(C(=O)Cc2ccc3c(c2)CCCC3)C1 (stereo not shown),20.44,-17.04
COc1ccc2nnc(CCCC(=O)Nc3nc4c(s3)CCC4)n2n1,9.677,-0.5352
Cc1nc(COC(=O)c2cccc3c2OCCO3)no1,11.43,6.49
O=C(c1ccco1)N1CCc2ncc(CN3CCOCC3)n2CC1,0.995,-11.58
Cc1nc2c(c(N3CCC(O)(CN4CCCC4)CC3)n1)CCNCC2,7.843,-11
O=C(Nc1nccs1)NC1CCN(Cc2ccccc2)CC1,18.2,3.529
CC(C)c1noc(CN2CCN(C(=O)c3cccc(F)c3)CC2)n1,16.67,-9.234
CC(C(=O)N1CCCCCC1)N1CCN(c2nccs2)CC1 (stereo not shown),8.657,-17.8
O=C(O)C(F)(F)F.O=C(O)C(F)(F)F.c1cnc2c(c1)CN(C1CCOC1)CCN2CC1CC1 (stereo not shown),-,-21.55
COCCN1C[C@H]2CN(Cc3cccc(OC)c3)CCN2C1=O,6.767,-
O=C(NC1CCCCC1)C1CCCN(C(=O)Nc2ccccn2)C1 (stereo not shown),9.091,11.34
CCN1CCN(C)C(=O)C12CCN(Cc1csc(C)n1)CC2.O=C(O)C(F)(F)F,-,25.71
Cc1nc([C@@H]2C[C@@H]3CCN(C(=O)Cc4ccsc4)C[C@H]3O2)no1,8.155,-
Cc1cnc(C)c(N2CCN(CCCc3[nH]nc(C)c3C)CC2)n1,13.66,-10.63
Cc1nc(CN2CCCN(C(=O)c3cccn3C)CC2)cs1,9.966,9.303
COCc1ccc(CN[C@H]2C[C@@H](Cc3cc(CCO)on3)C2(C)C)o1,11.19,1.605
Clc1cc(Cl)cc(OCCN2CCC(n3cncn3)CC2)c1,18.38,28.78
Cc1cc2ccccc2n1CCC(=O)NCCS(C)(=O)=O,22.38,-2.502
Cc1cc(O)c(OCC(=O)Nc2nc3c(s2)CCCCC3)cn1,13.03,9.637
O=C(O)C(F)(F)F.O=C(O)C(F)(F)F.[H][C@@]12OCCN(Cc3nccs3)[C@@]1([H])CC[C@@H]2OCc1ccncc1,-,-1.961
CNS(=O)(=O)CC(=O)N1CCC(c2ccc(F)c(F)c2)CC1,3.495,-9.656
Cc1cc(Cc2ccc(S(=O)(=O)N3CCSCC3)cc2)c(=O)[nH]n1,2.752,6.308
Cc1ccoc1C(=O)NC1CCN(Cc2cccc3ccccc23)CC1,24.36,-14.66
c1cc(CCNc2ncnc3c2CCN(Cc2ccoc2)CC3)ccn1,17.6,-27.57
CCCn1nccc1S(=O)(=O)N1CCC2(CCCN(C(C)C)C2=O)C1 (stereo not shown),3.519,-31.73
CC(C)Nc1cccc(CNC(=O)N2CCC[C@@H]2CO)c1,9.384,-6.556
N[C@H]1CN(S(=O)(=O)N2CCCCCC2)C[C@@H]1c1ccccc1,5.208,-1.173
Cc1nc(C2CCCC2)sc1C(N)=O,13.54,-22.92
O=C(O)C(F)(F)F.O=C(O)C(F)(F)F.[H][C@@]12COC[C@]1(CNC(=O)c1ccsc1)CN(Cc1cccnc1)C2,-,-19.05
CS(=O)(=O)CCC(=O)NC1(c2cccc(Br)c2)CC1,14.13,-4.391
CN1CCCCC1c1cncc(Cl)n1.Cl (stereo not shown),-,0.7745
CNc1cncc(C2CCCN2S(=O)(=O)c2ccccc2F)n1 (stereo not shown),16.08,-7.629
O=C(CCN1CCOC(Cn2cccn2)C1)NC1CCCCC1 (stereo not shown),17.49,-2.4
CCNc1ncc(C(=O)NCc2csc(C)n2)cn1,17.82,-171.6
Cc1nn(CCCNC(=O)C2CCN(S(C)(=O)=O)CC2)c(Cl)c1Cl,14.87,10.48
CN1CCNCC(Cc2cnc3ccccc3c2)C1 (stereo not shown),8.511,13.72
C=C(C)Cn1ccc2cc(OC)c(F)cc2c1=O,11.88,-13.06
O=C(NCc1cncc2c1CCN(C1CCOCC1)C2)c1ccno1,9.341,-
Cc1cc(CN(C)C(=O)NC(C)Cc2ccc(O)cc2)no1 (stereo not shown),10.13,0.3214
O=C(O)C(F)(F)F.[H][C@]12CC[C@@]3(N=C(CC)N(C)C3=O)[C@@]1([H])CN(CC1CC1)C2,-,5.845
Cc1cnn(C2CCCN(C(=O)c3cc(-c4cccs4)n[nH]3)C2)c1 (stereo not shown),13.24,7.352
O=C1CCC(c2nc(C3CCNCC3)no2)N1 (stereo not shown),16.04,6.96
CCn1cc(NC(=O)NC(CO)Cc2c[nH]c3ccccc23)cn1 (stereo not shown),15.25,21.08
Cc1nc(C)n(CC2CCCN(c3ncnc4sccc34)C2)n1 (stereo not shown),9.15,24.39
Cc1ccc(C(=O)N2C[C@@H]3CCCO[C@@H]3[C@H](N3CCCC3)C2)cn1,10.73,-
O=C1CCNC(=O)N1CC(=O)N1CCC1c1ccc(F)cc1 (stereo not shown),7.229,51.34
Cc1cc(CN2C[C@@H]3CCCO[C@@H]3[C@H](N(C)C(C)C)C2)no1,4.498,-
O=C(O)C(F)(F)F.O=C(O)C(F)(F)F.[H][C@@]12OCCN(CC3CCOCC3)[C@@]1([H])CC[C@H]2Oc1ccccn1,-,-15.6
O=C(O)C(F)(F)F.[H][C@@]12CCN(C(=O)c3cocn3)C[C@]1(COc1ncccc1F)CCO2,-,10.96
[H][C@@]12CCN(c3ccccn3)C[C@]1([H])[C@@H](CNC(=O)c1ccco1)OC2,-,21.84
CCN(CC1CCOC1)C(=O)Nc1ccc(OCC(F)(F)F)nc1 (stereo not shown),22.69,-3.829
CN1CCC2(CC1)CN(CC1CC1)CC21CCNC1=O.O=C(O)C(F)(F)F.O=C(O)C(F)(F)F (stereo not shown),-,-10.15
NC(=O)c1cc(C2CCCN(C(=O)CCc3ccsc3)C2)n[nH]1 (stereo not shown),6.073,8.193
CN(C)C(=O)[C@@H]1CC[C@@H]2[C@@H](CCN2Cc2ccccn2)O1,15.22,-
Cc1ccc2c(c1)C(NC(C)C)CC21CCNCC1 (stereo not shown),11.42,-
CC1CCN(C[C@H]2CN3CC[C@H]2C[C@@H]3CNC(=O)c2ccco2)CC1,1.017,-
CS(=O)(=O)NCc1cc(=O)n2c(n1)CN(Cc1ccco1)CCC2.O=C(O)C(F)(F)F,-,-33.3
[H][C@]12CN(Cc3cccc(C#N)c3)CC[C@@]1(O)CCN(S(=O)(=O)N(C)C)C2,-,-5.18
COc1c(CNC2CCCN(c3ncccn3)C2)c(C(C)C)nn1C (stereo not shown),2.514,-17.27
COc1ccc(C(=O)N2CCC(Nc3ccc(C)nn3)CC2)c(F)c1,14.58,-4.351
Cn1ccnc1CNCCNc1ncc(Cl)cc1Cl,2.514,-16.41
O=C(CCc1nccs1)N1CCCC(N2CCNC2=O)C1 (stereo not shown),10.34,3.511
Cc1ccc(C2(O)CCN(Cc3nc(C)n4ccccc34)CC2)nc1,5.842,43.96
CN(C)C1CCCN(C(=O)NCCC(C)(C)C)C1 (stereo not shown),2.978,14.3

Once more, the final 10:

structure	LdMetRS	Mtb heat-shock
Cc1ccc2c(c1)C(NC(C)C)CC21CCNCC1 (stereo not shown)	11.42	-
CC1CCN(C[C@H]2CN3CC[C@H]2C[C@@H]3CNC(=O)c2ccco2)CC1	1.017	-
CS(=O)(=O)NCc1cc(=O)n2c(n1)CN(Cc1ccco1)CCC2.O=C(O)C(F)(F)F	-	-33.3
[H][C@]12CN(Cc3cccc(C#N)c3)CC[C@@]1(O)CCN(S(=O)(=O)N(C)C)C2	-	-5.18
COc1c(CNC2CCCN(c3ncccn3)C2)c(C(C)C)nn1C (stereo not shown)	2.514	-17.27
COc1ccc(C(=O)N2CCC(Nc3ccc(C)nn3)CC2)c(F)c1	14.58	-4.351
Cn1ccnc1CNCCNc1ncc(Cl)cc1Cl	2.514	-16.41
O=C(CCc1nccs1)N1CCCC(N2CCNC2=O)C1 (stereo not shown)	10.34	3.511
Cc1ccc(C2(O)CCN(Cc3nc(C)n4ccccc34)CC2)nc1	5.842	43.96
CN(C)C1CCCN(C(=O)NCCC(C)(C)C)C1 (stereo not shown)	2.978	14.3